# Test results taken from PubChem BioAssay AID1347423 (Functional Genomics Laboratory (NCATS/FGL), 2020).
# Screen size: about 52,000 sequences; about 210 (0.4%) were called active.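 The calls were made as follows: active = gene whose silencing raises cell survival under the drug, median off-target-corrected z-score across its silencing RNAs 2 or more; inactive = the rest.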 Some of the results follow.
# Assay: Resistance to Poly (ADP-Ribose) Polymerase inhibitor: Gene Identification via Genome-wide siRNA Screen
# Settings: mouse BRCA2 R2336H ES cells, olaparib, CellTiter-Glo viability; hits give high values
# How it was run: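 Mouse BRCA2 R2336H ES cells were reverse-transfected with siRNA (20 nM final), treated at 48 h with 500 nM olaparib, and read by CellTiter-Glo after 72 h. Scores: MAD-based z per siRNA, median per gene, seed off-target correction.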
row,Sequence,z-score
1,GGCAACAGUGAAAGAUGAATT against C730036D15Rik,inactive: -1.05
2,CAGCAAAAACGACCCACCATT against Eef1a1,inactive: -0.206
3,GGAGGAAAAAGAGAAAAAUTT against Slc16a2,inactive: 2.94
4,GGUUUCAAGAAAGAUAUGATT against C230078M14,inactive: 0.104
5,CCAAGGCCGUGUCAUUCAUTT against Adssl1,inactive: 0.152
6,GCGUGCAGGGUUUUAGCUATT against 1190006E07Rik,inactive: -1.25
7,CGAAUACUACGCCAAGAUUTT against Abca2,inactive: 0.605
8,GCUCCAAGUGUUAUUAGUCTT against Rgl2,inactive: -0.186
9,CCUUUAGAAGUAAACCUCGTT against Usp16,inactive: -0.208
10,GCGAGAGUUUUUCUUCAACTT against Hoxc11,inactive: 0.608
11,CCUAUCUCCCUGUUCGAUATT against Rab36,inactive: 0.905
12,GGUUUUCAGAUCUAGGAUUTT against Casp6,inactive: 2.55
13,GGUGAACCAAACAACAAACTT against Sele,inactive: 0.424
14,AGUAUACGAUGACUAUUUCTT against Zfp51,inactive: 0.0774
15,GGUUAUCAAACAGGUGUUGTT against Aldh3b1,inactive: 0.482
16,GGUUCUGUUGUGUGACUAUTT against Mme,inactive: -0.309
17,GGCCUGUGACAUUCAAUGCTT against 4432405B04Rik,inactive: -0.31
18,GCCAAGACCAUUCAGCCUUTT against 1110003A17Rik,inactive: 2.59
19,GGCUGAGAAUCUGGUUGAGTT against Casp12,inactive: -0.011
20,GGGUAAAGUUGUCAGUGGUTT against Cd4,inactive: -0.42
21,GGAUUUCAUCUGGUACCUGTT against C130022P09Rik,inactive: -0.733
22,GGACCUAGAGCGGAGUCUATT against Golga1,inactive: -1.34
23,GGACAUAUUCCUGAAUGGCTT against Bcdo2,inactive: -0.0575
24,GGAGAAUCCUGAAACAGGGTT against Kif3c,inactive: 0.453
25,GCAGCUUAUCACAAUGCUGTT against Asb3,inactive: 2.12
26,CCCAAUCGGUUAAUUGUUGTT against Vcp,inactive: -0.861

row,Sequence,z-score
1,GCCAGUUAGGGAACUACGATT against AI428795,inactive: 1.11
2,CGCAAGAUUGCAUUGUGUATT against BC049354,inactive: -0.644
3,GGCAUGAACACUGAGGAGUTT against BC038881,inactive: 0.377
4,GCCUAGGUAGUGGAGAUGATT against Nkd1,inactive: -1.84
5,CCUUGGCACAUGGAUCUAUTT against Tomm22,inactive: -1.86
6,GGUGGAAGACGUACUUCCUTT against Nfatc1,inactive: 0.641
7,GGAGUAGCAAAGAACUGCUTT against Arpc4,inactive: -0.783
8,GGAAAUUUCAGAGCUCAAGTT against Trpc2,inactive: -0.445
9,GGGUCUACCUGACAAUAAATT against C130007D14,inactive: 0.855
10,GGCUUUGUAUAUUCUGUUGTT against Fkbp6,inactive: -0.242
11,CCUGAAAGUCGUUUAUCGCTT against Il7r,inactive: -0.0595
12,GGGCUGAAGUGAAAACAGCTT against Mmp8,inactive: 0.835
13,CGGCAGUCCUUGUUAGGUATT against Olfr374,inactive: -0.555
14,GAGCAGCUCUUUAGCCAGGTT against 1110007C05Rik,inactive: -0.933
15,GGACAGUGAAUCUAUUGCUTT against Herc1,inactive: 0.332
16,GGAUGAAGUAGACUUAGAUTT against Depdc1b,inactive: -0.769
17,CCUUACCCUGUUAUACAAGTT against C86302,inactive: 1.7
18,GCACUAUUUUGGAUUAGUCTT against Usp12,inactive: -0.239
19,GGAGGCAGCAAAAAGGUUGTT against Olfr1110,inactive: -1.28
20,GCCGAAGUCGACAAUAAUCTT against Gm1128,inactive: -0.306
21,GGGUGAUCGCACGAUUGAGTT against Casq2,inactive: 0.161
22,GGUCCUUAAGUCCUUUGACTT against C230004F18Rik,inactive: -0.124
23,GGCCCGGUAAAGUGGUAAGTT against 2310040A13Rik,inactive: -1.48
24,GCAGUACGAAAUGGUAUACTT against 5430439G14Rik,inactive: -1.81
25,GGCAUAUCGAGUGCUCAGUTT against Dnajc4,inactive: -0.923
26,CCAAUUACGGAGAUUGGAATT against Tm4sf6,inactive: -0.611

# Reprinted from the listing (two entries):
row,Sequence,z-score
24,GCAGUACGAAAUGGUAUACTT against 5430439G14Rik,inactive: -1.81
25,GGCAUAUCGAGUGCUCAGUTT against Dnajc4,inactive: -0.923

# The list goes on.

row,Sequence,z-score
1,CCGCGUCUGUAUUUGAUAUTT against C330023F11Rik,inactive: -1.51
2,GGCCAGCUUUUCCUAGAUGTT against C030006K11Rik,inactive: 0.0929
3,CGUAGUGCGCUUCAUUCAATT against 1810047C23Rik,inactive: 0.0596
4,GCCACAACAAACCUACGACTT against Xpc,inactive: 0.138
5,GGACAACAGCUGAAGAACUTT against Slc35a1,inactive: -1.33
6,GCUGAUCACACCAUCCCUATT against Hccs,inactive: 0.97
7,CCUAGCAACAUUCUUUAUGTT against Rps6ka3,inactive: 0.259
8,CGUAUCGAUGUGGAUAAUATT against Tpst1,inactive: 0.15
9,GGCAAUGAUCUUAUUCCAATT against 4921521F21Rik,inactive: -1.3
10,GGCUGAAGAUGGAGAGAACTT against Tbca,inactive: -2.5
11,GGGUUUCACCCAAAGCCUUTT against Zfp354c,inactive: -0.163
12,GGUAUCCACAGUAAAAUUGTT against Pcp4,inactive: -0.523
13,GCUGCAAUAGUCACUGGAGTT against H2-K1,inactive: -1.27
14,UAGUCGGCCACUUCAGAGATT against Olfr825,inactive: 0.46
15,GGGCAGGAUUGUCUGUUUATT against 1110004D19Rik,inactive: -0.356
16,GCUGACCUACAUCUCGAAGTT against Plekha2,inactive: 1.32
17,GGUGAAGAAGACUCAUGAATT against Gnb1l,inactive: 2.6
18,CCUUGGUACUUCGAGUUUATT against Gpr87,inactive: -0.739
19,GCAUGUUAAGGGCAAUGGUTT against 4931440F15Rik,inactive: -0.542
20,GCCAAUCUCUGCUAGAUACTT against D11Ertd18e,inactive: 0.433
21,GGAGUUGGCUAAGCUCUCATT against Elmo2,inactive: -0.661
22,GCCAACCCUGAAAACCCUUTT against Gc,inactive: 0.35
23,CCUUCUGGAGUACAUAUCCTT against Trip6,inactive: 1.04
24,GGAAGUAUGCAGAAGACGATT against Sertad4,inactive: 0.0137
25,GGGUCUGGUUUAUUCAUGUTT against Zic1,inactive: 0.685
26,CGGCAAGCCCAAAAAGGUCTT against Dlx3,inactive: 1.63

row,Sequence,z-score
1,GGACAUUUUCUUUUCACGUTT against 8030451K01Rik,inactive: -0.0614
2,GGAGGAAGAAAUGUUUCGCTT against Slc9a8,inactive: 1.9
3,CCUGAUGCACGUGCUAAAGTT against Ripk1,inactive: 2.72
4,CCACCAAUGAUUUGAUGCATT against Gpr75,inactive: -0.29
5,CGAAAAGCCUCAUUUCAUCTT against Clp1,inactive: -0.062
6,GCAUUUAAGGACCUUGUAATT against Olfr813,inactive: -0.172
7,CCUCCAUUGACGCAAUAUCTT against Mvk,inactive: 0.184
8,CCGUUUCUUCCUAAUUGGUTT against D7Ertd743e,inactive: -0.0778
9,GGAAUCAGGACAUUAGUGATT against Olfr868,inactive: 0.235
10,GGACGUACAAAACUUCCUCTT against Hnrpf,inactive: 0.264
11,GGACAGUGUGUUUUCUUGUTT against 8430438L13Rik,inactive: -0.0166
12,GGAUCUCUUUGUUAAUGGUTT against BC012256,inactive: -0.207
13,GGCUACCGAGACAAUGCUUTT against A030012M09Rik,inactive: 0.212
14,GGUGGCUUUGCUGAAGUACTT against 9330129D05Rik,inactive: -1.44
15,GGGAGUUAUUUAAGAUUCUTT against Has1,inactive: -0.281
16,GGAGUGGUAUAAGUCGAAATT against Prph1,inactive: 0.337
17,GGUUCUGAUGAGUCUCAUGTT against 2010311D03Rik,inactive: -1.1
18,CCGGACUUUAGAAUAAUGUTT against Hhex,inactive: 2.14
19,GCCACAACUUAAUUUUCUGTT against 9630020C08Rik,inactive: 0.39
20,CCCUCUUUACCAGUAUUACTT against Pla2g5,inactive: -0.263
21,GCUCCAGUUAAAUGUUACATT against Icam5,inactive: -0.14
22,GCUAAAUUACACAUUGACCTT against Vcam1,inactive: 1.07
23,GGAGCAACUAGGAUGAUGATT against Rog,inactive: -2.11
24,GCAAAAAUGUUAAGGGUGCTT against Snph,inactive: 0.8
25,GCUCUCUUAAAGCAUGUAATT against Cog6,inactive: -0.415
26,GCUGUUUUAUCUCCAAUGGTT against Araf1,active: 1.6

# 6 entries picked at random from the list so far:
row,Sequence,z-score
3,CCUGAUGCACGUGCUAAAGTT against Ripk1,inactive: 2.72
4,CCACCAAUGAUUUGAUGCATT against Gpr75,inactive: -0.29
6,GCAUUUAAGGACCUUGUAATT against Olfr813,inactive: -0.172
8,CCGUUUCUUCCUAAUUGGUTT against D7Ertd743e,inactive: -0.0778
19,GCCACAACUUAAUUUUCUGTT against 9630020C08Rik,inactive: 0.39
2,GGAGGAAGAAAUGUUUCGCTT against Slc9a8,inactive: 1.9
